{"source": "patent EP1095657A2", "about": "“Compositions for the regulation of cytokine activity” (priority 1992, dated 1994)", "test_system": "experimental DTH reaction in mice", "experiment": "In vivo bioassay of inhibition of experimental DTH reactivity (oxazolone ear swelling)", "design": "species or system mice (BALB/c or CD1)", "conditions": "CD1 mice, s.c.", "experimental": "Groups of inbred BALB/c (Jackson Laboratories, Bar Harbor, ME) or of outbred CD1 (Weizmann Institute Animal Breeding Center, Rehovot, Israel) mice are sensitized on the shaved abdominal skin with 100 µl of 2% oxazolone (OX) in acetone/olive oil (4/1, v/v) applied topically. DTH sensitivity is elicited 5 days later as follows: mice are challenged with 20 µl of 0.5% OX (10 µl administered topically to each side of the ear) in acetone/olive oil. A constant area of the ear is measured immediately before challenge and 24 and 48 h later with a Mitutoyo engineer's micrometer. The individual measuring ear swelling is blinded to the identity of the groups of mice. The increment (△) of ear swelling is expressed as the mean in units of 10^-2 mm or 10^-4 inch (+SE) depending on the micrometer that is used. Percent inhibition is calculated as follows: %Inhibition= 1-((Treated-negative control)/(positive control-negative control)) [formula]\nMice are treated with LMWH as in Example 5.1, injected the day before primary sensitization to OX. On the fifth day after sensitization to OX, the mice are challenged to induce a DTH reaction, as described above.\nThe positive control is the DTH reaction elicited in immunized mice in the absence of treatment with LMWH. The negative control is the background swelling produced by the antigen in naive (non-immunized) mice.\nBALB/c mice (at least 5 mice per group) were sensitized on the shaved abdomen with 3% 4-ethoxymethylene-2-phenyl oxazolone (OX; BDH Chemicals, GB) in acetone/olive oil applied topically. DTH sensitivity was elicited 5 days later as follows. Mice were challenged with 0.5% OX in acetone/olive oil. The ear was measured immediately before challenge and 24 h later with Mitutoyo engineer's micrometer (Japan). The individual measuring the swelling of the ear was blinded to the identity of the groups of mice. To interfere with DTH response, the low molecular weight immuno-regulatory fractions, diluted in PBS, were administrated subcutaneously into the back of the treated mice at the indicated time schedules and concentrations. Treated mice were inspected during and after (>2 months) the treatment and no major side-effects were observed clinically.\nIn particular, CD1 mice (available from the Weizmann Institute Animal Breeding Center, Rehovot, Israel), 4-12 mice per group, were treated as described in Section 5.2 or 6.8.", "key": {"[1]": {"conditions": "at that dose, value in parentheses in the cell taken as positive control, not reported"}}, "note": "The name of at least one read-out is uncertain.", "data": [{"smiles": "N[C@H]1C(O)O[C@H](CO)[C@H](O)[C@@H]1O", "note": "(stereo partly drawn) [GalN, D-Galactosamine]", "values": [{"measurement": "DTH", "setting": "[1]", "result": "8.9 ± 0.6 (18.9 ± 0.7) 10^-2 mm"}, {"measurement": "DTH", "setting": "higher effective dose range", "result": "6.5 ± 0.7 (18.9 ± 0.7) 10^-2 mm"}]}, {"smiles": "N[C@H]1C(O)O[C@H](CO)[C@@H](O)[C@@H]1O", "note": "(stereo partly drawn) [GlcN, 2-amino-2-deoxy-D-glucose]", "values": [{"measurement": "DTH", "setting": "[1]", "result": "5 ± 0.7 (19.7 ± 1.2) 10^-2 mm"}, {"measurement": "DTH", "setting": "higher effective dose range", "result": "2.3 ± 0.9 (19.7 ± 1.2) 10^-2 mm"}]}]}
